The assay deals with Hypoxia-Inducible Factor 1α (mouse (endogenous in J774)) (UniProt Q61221). The assay is described as follows: affinity purification with mass spectrometry; HIF1α immunoprecipitated from 2 mg lysate of J774 cells under hypoxia (2% O2, 8 h); SDS-PAGE gel fragments analysed by tandem MS/MS.

The chains behind the UniProt entries cited, without tags or fusion partners. Residues count along the entry.
UniProt Q61221: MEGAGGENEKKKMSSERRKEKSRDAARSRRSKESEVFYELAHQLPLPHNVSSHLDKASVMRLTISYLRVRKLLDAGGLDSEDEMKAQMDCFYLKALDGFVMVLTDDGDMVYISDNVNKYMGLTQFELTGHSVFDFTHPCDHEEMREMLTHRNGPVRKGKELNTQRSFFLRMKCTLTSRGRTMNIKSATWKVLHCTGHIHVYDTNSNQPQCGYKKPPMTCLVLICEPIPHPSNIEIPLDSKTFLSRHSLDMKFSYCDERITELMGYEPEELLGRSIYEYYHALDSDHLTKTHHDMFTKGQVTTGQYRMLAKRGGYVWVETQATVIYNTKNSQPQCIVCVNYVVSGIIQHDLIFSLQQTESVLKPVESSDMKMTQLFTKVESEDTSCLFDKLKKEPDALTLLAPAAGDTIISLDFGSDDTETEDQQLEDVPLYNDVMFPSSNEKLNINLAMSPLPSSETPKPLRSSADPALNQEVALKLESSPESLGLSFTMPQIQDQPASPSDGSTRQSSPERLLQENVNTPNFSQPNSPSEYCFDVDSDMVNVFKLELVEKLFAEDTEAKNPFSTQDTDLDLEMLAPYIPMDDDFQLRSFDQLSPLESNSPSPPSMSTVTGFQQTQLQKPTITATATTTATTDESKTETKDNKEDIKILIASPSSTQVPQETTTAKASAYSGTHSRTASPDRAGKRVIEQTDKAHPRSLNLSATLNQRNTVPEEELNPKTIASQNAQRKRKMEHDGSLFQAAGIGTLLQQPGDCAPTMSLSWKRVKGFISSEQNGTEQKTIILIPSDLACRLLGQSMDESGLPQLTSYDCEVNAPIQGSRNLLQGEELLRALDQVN
UniProt P20029, residues 20-655: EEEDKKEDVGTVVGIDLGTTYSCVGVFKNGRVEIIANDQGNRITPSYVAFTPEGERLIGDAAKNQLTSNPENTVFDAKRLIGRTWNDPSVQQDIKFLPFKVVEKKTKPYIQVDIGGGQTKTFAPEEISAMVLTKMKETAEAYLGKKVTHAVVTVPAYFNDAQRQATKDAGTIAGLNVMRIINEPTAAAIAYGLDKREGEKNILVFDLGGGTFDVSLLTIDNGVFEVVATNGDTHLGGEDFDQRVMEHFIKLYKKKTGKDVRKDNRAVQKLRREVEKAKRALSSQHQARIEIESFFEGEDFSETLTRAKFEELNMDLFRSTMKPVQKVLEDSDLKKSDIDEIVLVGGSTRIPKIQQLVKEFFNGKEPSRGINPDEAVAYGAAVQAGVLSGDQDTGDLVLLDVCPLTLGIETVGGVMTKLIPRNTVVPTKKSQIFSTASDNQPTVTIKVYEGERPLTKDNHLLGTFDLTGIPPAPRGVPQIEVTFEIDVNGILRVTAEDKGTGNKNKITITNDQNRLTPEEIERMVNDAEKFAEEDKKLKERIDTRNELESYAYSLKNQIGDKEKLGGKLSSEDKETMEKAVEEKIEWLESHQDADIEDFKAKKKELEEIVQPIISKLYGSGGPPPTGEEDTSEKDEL

No constants are given. Whether binding was seen depends on the method and setting. In cells and extracts the contact can be indirect. A yes stands for co-enrichment or nearness to the bait. Other partners may have been found.

Consider “Glucose-Regulated Protein-78 (from UniProt P20029 20-655)”, for which the binding entry is given as “binds”.

Source of the values: PMC10286485.
